Residue numbers refer to the chain shown, from its start. These are yes or no findings as the source states them, for the method shown. Some binding calls cover weakened binding; strength is not graded here.
B1: anti-LILRB1 antibody 3C1 (antibody, human IgG4, lambda, V domains shown)
VH: EVQLVESGGGLVQPGGSLRLSCAASGFTFSDYDMHWVRQATGKGLEWVATIDTAGDTYYPDSVRGRFTISRENAKNSLSLQMNSLRAGDTAVYFCARDVPGTGFDHWGQGTLVTVSS
VL: SSELTQDPAVSVALGQTVRITCQGDSLRSYYESWYQQKPGQAPVLVIYGKNNRPSGIPDRFSGSISGNTASLTITGTQAEDEADYYCNSRDNSGDHWVFGGGTRLTVLG
notes: Fully human antibody from XENOMOUSE XMG4-K/XMG4-KL mice, tested as hybridoma supernatant
B2: anti-LILRB1 antibody 19D6 (antibody, V domains shown)
VH: EVQLVESGGGLVQPGESLRLSCAASGFTFSDYDMHWVRQATGKGLEWVSAIDTAGDTYYLGPVKGRFTISRENAKNSLFLHMNSLRVGDTAVYYCIRDSGSSFDYWGQGTLVTVSS
VL: B1 VL with S1T, S29N, I65S, T73I, N88M, N92S, D95N, R104K, L105V
notes: Fully human antibody from XENOMOUSE mice, tested as hybridoma supernatant
B3: anti-LILRB1 antibody 30A10 (antibody, V domains shown)
VH: QVQLVESGGGVVQPGRSLRLSCAASGFTFSSYAMHWVRQAPGKGLEWVAIIWFDGSQRYYADSVKGRFTISRDNSRDTLYLQMNSLRAEDTAVYYCARDELTGFDYWGQGTLVTVSS
VL: DIQMTQSPSSLSASVGDRVTISCRASQNIINFLNWYQQKPGKAPKVLIDAASSLRSGVPSRFSGSGSETDFSLTISSLQPEDFATYYCQQSFSTPLTFGGGTKVEIRR
notes: as for B2

The chains behind the UniProt entries cited, without tags or fusion partners. Where a name states a change or a piece, a line headed by the entry shows the natural chain unless it says otherwise.
UniProt Q8NHL6: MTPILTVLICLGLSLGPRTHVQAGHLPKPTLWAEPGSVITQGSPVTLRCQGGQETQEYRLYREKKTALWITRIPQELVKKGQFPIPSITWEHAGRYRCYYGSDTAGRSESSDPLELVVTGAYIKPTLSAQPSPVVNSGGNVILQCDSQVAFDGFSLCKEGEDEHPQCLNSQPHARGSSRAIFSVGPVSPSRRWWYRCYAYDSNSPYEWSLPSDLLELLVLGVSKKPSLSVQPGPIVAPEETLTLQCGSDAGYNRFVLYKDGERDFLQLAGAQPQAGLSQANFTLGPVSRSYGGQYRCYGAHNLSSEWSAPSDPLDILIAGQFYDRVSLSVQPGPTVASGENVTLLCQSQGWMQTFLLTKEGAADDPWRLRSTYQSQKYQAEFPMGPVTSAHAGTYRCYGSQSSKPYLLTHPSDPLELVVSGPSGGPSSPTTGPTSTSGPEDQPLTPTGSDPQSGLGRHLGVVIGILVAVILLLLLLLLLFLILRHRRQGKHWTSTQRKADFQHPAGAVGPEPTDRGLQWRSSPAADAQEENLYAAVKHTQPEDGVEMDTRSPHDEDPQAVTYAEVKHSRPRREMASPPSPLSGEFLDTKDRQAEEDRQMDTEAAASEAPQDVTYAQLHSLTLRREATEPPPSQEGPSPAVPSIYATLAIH

Molecular target: Full length human LILRB1 expressed on HEK 293T cells (human) (UniProt Q8NHL6)
Test: flow cytometry on HEK 293T cells expressing full length or domain truncated human LILRB1

Binder | binding
B1 | binds
B2 | binds
B3 | binds

From patent publication US20210301020A1 (Amgen, published 2021)
